# Source: PubChem BioAssay AID2685 (National Center for Advancing Translational Sciences (NCATS), 2010)
# The list shows a part of the results. The main result of the screen is listed elsewhere. These columns were measured beside it and carry no call. Most of these compounds were active or inconclusive in the main read-out, so they are no random draw. The note in brackets gives the kind of curve behind each potency; many fits are weak.
# Assay: qHTS Assay for Lipid Storage Modulators in Drosophila S3 Cells;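 as to cell number change: cells counted by Cell Tracker Red CMTPX staining in the red channel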
# Conditions: BODIPY lipid droplet fluorescence, 18-24 h; for cell number change: measured here: cell count max response, cells fed with added oleic acid
# How it was run: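 Laser-scanning cytometry quantifies lipid droplet accumulation (500–530 nm total intensity; droplet/cell object ratio) in oleic acid-fed (400 uM added) Drosophila S3 cells treated with a concentration series. 20 uM Triacsin C defined 100% inhibition.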
# [1] = measured here: lipid fluorescence (Fed channel) AC50, cells fed with added oleic acid
# [2] = measured here: cell number channel AC50, cells fed with added oleic acid
Structure (SMILES),cell number change,AC50 [1],AC50 [2]
O=C(Cc1c(F)cccc1Cl)NNC(=O)c1ccncc1,14.1%,"0.00461 µM [rising, full curve, poor fit]",–
S=c1[nH]nc(COc2ccccc2)n1/N=C/c1cccnc1,–,"29.1 µM [rising, single point]",–
CC1CC(C)CN(C(=O)COC(=O)c2ccc3ncsc3c2)C1 (stereo unspecified),21%,–,"2.91 µM [falling, single point]"
O=C(CNC(=O)C1COc2ccccc2O1)N/N=C/c1ccc([N+](=O)[O-])cc1 (stereo unspecified),-12.7%,"29.1 µM [rising, single point]",–
C#CCOCCOCCOCCNc1nc(N2CCN(C(=O)Cn3cc(CC(C)O)nn3)CC2)nc(N2CCN(C(=O)[C@H](CCCCN)n3cc(CCC(=O)O)nn3)CC2)n1 (stereo partly specified),8.81%,–,"0.00517 µM [rising, full curve, poor fit]"
CCOC(=O)CCn1c(CC(=O)OCC)nc2ccccc21,-13%,"6.51 µM [rising, partial curve, poor fit]",–
C/C(=N\O)C1CCCCC1,-11.7%,"20.6 µM [falling, single point]",–
COC(=O)N/N=C/c1ccc([N+](=O)[O-])o1,-28.8%,"18.4 µM [falling, partial curve]",–
COc1ccc(Cc2nn3c(-c4ccccc4OC)nnc3s2)cc1,15.9%,"0.58 µM [rising, single point]",–
CC(C)CC(NC(=O)c1ccc(Cl)cc1)C(=O)O (stereo unspecified),0.116%,–,–
O=C(NCCCCc1ccccc1)C1CCCC1,20.8%,–,–
CCc1nn(CCCC(=O)NCc2cc(Br)ccc2OC)c(=O)c2cc3occc3n12,-35.8%,–,"29.1 µM [falling, single point]"
Cc1ccc(NC(=O)/C=N/OCC(=O)NCc2ccccc2Cl)cc1,-14.8%,"8.2 µM [falling, partial curve]",–
Cc1ccc(Cn2ccc(NC(=O)c3cc(-c4ccc(Cl)cc4)on3)n2)cc1,-10.3%,–,–
CC(=O)c1ccc(OC(=O)COc2ccccc2)cc1,-13%,"0.00517 µM [falling, full curve, poor fit]",–
c1ccc(OCCOc2ncnc3ccccc23)cc1,-6.13%,–,–
CC(=O)c1c(N2CCN(Cc3ccccc3)CC2)[nH]c(-c2ccccc2)nc1=S,-29%,"0.82 µM [falling, partial curve, poor fit]",–
CCCCNc1c(-c2ccc(SC3CCCCC3)c(OC)c2)nc2ccc(Cl)cn12,-54.3%,–,"14.6 µM [falling, partial curve]"
Cn1nccc1/C=N\NC(=O)c1ccc(Cl)cc1,-35.3%,–,–

# 7 entries from above, ordered by molar mass, largest number first.
Structure (SMILES),cell number change,AC50 [1],AC50 [2]
C#CCOCCOCCOCCNc1nc(N2CCN(C(=O)Cn3cc(CC(C)O)nn3)CC2)nc(N2CCN(C(=O)[C@H](CCCCN)n3cc(CCC(=O)O)nn3)CC2)n1 (stereo partly specified),8.81%,–,"0.00517 µM [rising, full curve, poor fit]"
CCCCNc1c(-c2ccc(SC3CCCCC3)c(OC)c2)nc2ccc(Cl)cn12,-54.3%,–,"14.6 µM [falling, partial curve]"
CC(=O)c1c(N2CCN(Cc3ccccc3)CC2)[nH]c(-c2ccccc2)nc1=S,-29%,"0.82 µM [falling, partial curve, poor fit]",–
Cc1ccc(Cn2ccc(NC(=O)c3cc(-c4ccc(Cl)cc4)on3)n2)cc1,-10.3%,–,–
COc1ccc(Cc2nn3c(-c4ccccc4OC)nnc3s2)cc1,15.9%,"0.58 µM [rising, single point]",–
O=C(Cc1c(F)cccc1Cl)NNC(=O)c1ccncc1,14.1%,"0.00461 µM [rising, full curve, poor fit]",–
Cn1nccc1/C=N\NC(=O)c1ccc(Cl)cc1,-35.3%,–,–

# The list goes on.

Structure (SMILES),cell number change,AC50 [1],AC50 [2]
CCOC(=O)c1sc2nc(C)c3c(c2c1N)CC(C)(C)OC3,99.5%,"2.06 µM [rising, partial curve]","3.66 µM [rising, full curve]"
S=c1nccc(-c2ccc(Cl)cc2)[nH]1,19%,"0.00517 µM [falling, full curve, poor fit]",–
Cc1ccccc1C(=O)NCC(=O)OC(C)C(=O)Nc1cccc(S(=O)(=O)N2CCOCC2)c1 (stereo unspecified),40.2%,–,"32.6 µM [rising, partial curve]"
Cc1c(C(=O)N2CCOCC2)sc(NC(=O)c2ccccc2F)c1C#N,-5.71%,–,–
CCCCNC(=O)C1CC(=O)N(C2CCCC2)C1 (stereo unspecified),49.6%,"0.82 µM [falling, full curve]","3.66 µM [falling, single point]"
COc1ccc(CCNC(=O)c2sc(=S)n(C)c2N)cc1,28.4%,"0.517 µM [rising, full curve, poor fit]","0.184 µM [rising, single point]"
COc1ccc(CN2CCc3ccc(NC(=O)CCc4ccccc4OC)cc3C2)c(O)c1,-23.7%,"23.1 µM [rising, single point]",–
Clc1cccc(Cl)c1/C=C/c1nc2ccccc2[nH]1,16.1%,–,–
O=C(COC(=O)/C=C/c1ccc(C(F)(F)F)cc1)NCC1CCCO1 (stereo unspecified),-25%,"16.4 µM [falling, single point]","0.0291 µM [falling, full curve, poor fit]"
COC(=O)c1ccc(C(=O)N(Cc2ccccc2)c2ccccc2)cc1,-1.85%,"3.55 µM [rising, single point]",–
O=C(Cc1ccc(Cl)cc1Cl)Nc1ccncc1Cl,-37%,"10.3 µM [falling, partial curve, poor fit]","14.6 µM [falling, partial curve, poor fit]"
CCC(C)N(C(=O)COC(=O)c1cc([N+](=O)[O-])ccc1N)C1CCS(=O)(=O)C1 (stereo unspecified),17.6%,"29.1 µM [rising, single point]",–
CC(=O)Nc1ccc(-c2nnc(SCC(=O)c3ccc4c(c3)Cc3ccccc3-4)n2C)cc1,-63.5%,"16.4 µM [falling, single point]","14.6 µM [falling, partial curve]"
CSc1ccc(NC(=O)NCCCN2CCC(Cc3ccccc3)CC2)cc1,61.1%,"0.58 µM [falling, single point]","29.1 µM [rising, single point]"
O=C(CSc1nnnn1C1CCCCC1)Nc1nc2c(s1)CCCC2,–,"14.6 µM [falling, single point]","0.092 µM [rising, full curve, poor fit]"
CC(NC(N)=O)C(=O)OCC(=O)c1ccc(-c2ccccc2)cc1 (stereo unspecified),-2.71%,–,–
CCN(CC)S(=O)(=O)c1ccc(C(=O)NNC(=O)c2csc(N3CCOCC3)n2)cc1,-48%,"29.1 µM [falling, single point]","29.1 µM [falling, single point]"
COc1cccc(C2CC(c3cccs3)=NN2C(=O)CSC2=NN3CCCC(=O)N=C3S2)c1OC (stereo unspecified),-3.45%,"6.51 µM [falling, partial curve]",–
CS(=O)(=O)Cc1nc2ccccc2oc1=O,-43.3%,"0.103 µM [falling, full curve, poor fit]","29.1 µM [falling, single point]"
